This is one part of the list.
Key:
Assay in all cases: log2 fold change, soluble protein after heating vs DMSO (PISA); higher = thermal stabilisation; K562 cells, 10 uM, 30 min; active = over 0.2 and 3.5 SD of the protein, either way, in both replicates (recomputed)
[1] = compound: COC1=CC=C(C=C1)CN2C=CC3=C2C=C(C=C3)C(=O)NO
Outline: (§1)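 K562 cells at 2×10^6 cells/mL were treated for 30 min with 10 μM compound, and aliquots were heated for 3 min over 48°C-58°C before pooling. Extraction used PBS with 0.5% NP-40 at 4°C, and soluble protein was the supernatant after 21,000xg for 90 min, measured by TMTpro 16plex LC-MS/MS with channel sums equalised. Thermal stability values, relative to control samples and from duplicates, are log2 fold changes.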

The chains behind the UniProt entries cited, without tags or fusion partners. Where a name states a change or a piece, a line headed by the entry shows the natural chain unless it says otherwise.
UniProt Q2TAZ0: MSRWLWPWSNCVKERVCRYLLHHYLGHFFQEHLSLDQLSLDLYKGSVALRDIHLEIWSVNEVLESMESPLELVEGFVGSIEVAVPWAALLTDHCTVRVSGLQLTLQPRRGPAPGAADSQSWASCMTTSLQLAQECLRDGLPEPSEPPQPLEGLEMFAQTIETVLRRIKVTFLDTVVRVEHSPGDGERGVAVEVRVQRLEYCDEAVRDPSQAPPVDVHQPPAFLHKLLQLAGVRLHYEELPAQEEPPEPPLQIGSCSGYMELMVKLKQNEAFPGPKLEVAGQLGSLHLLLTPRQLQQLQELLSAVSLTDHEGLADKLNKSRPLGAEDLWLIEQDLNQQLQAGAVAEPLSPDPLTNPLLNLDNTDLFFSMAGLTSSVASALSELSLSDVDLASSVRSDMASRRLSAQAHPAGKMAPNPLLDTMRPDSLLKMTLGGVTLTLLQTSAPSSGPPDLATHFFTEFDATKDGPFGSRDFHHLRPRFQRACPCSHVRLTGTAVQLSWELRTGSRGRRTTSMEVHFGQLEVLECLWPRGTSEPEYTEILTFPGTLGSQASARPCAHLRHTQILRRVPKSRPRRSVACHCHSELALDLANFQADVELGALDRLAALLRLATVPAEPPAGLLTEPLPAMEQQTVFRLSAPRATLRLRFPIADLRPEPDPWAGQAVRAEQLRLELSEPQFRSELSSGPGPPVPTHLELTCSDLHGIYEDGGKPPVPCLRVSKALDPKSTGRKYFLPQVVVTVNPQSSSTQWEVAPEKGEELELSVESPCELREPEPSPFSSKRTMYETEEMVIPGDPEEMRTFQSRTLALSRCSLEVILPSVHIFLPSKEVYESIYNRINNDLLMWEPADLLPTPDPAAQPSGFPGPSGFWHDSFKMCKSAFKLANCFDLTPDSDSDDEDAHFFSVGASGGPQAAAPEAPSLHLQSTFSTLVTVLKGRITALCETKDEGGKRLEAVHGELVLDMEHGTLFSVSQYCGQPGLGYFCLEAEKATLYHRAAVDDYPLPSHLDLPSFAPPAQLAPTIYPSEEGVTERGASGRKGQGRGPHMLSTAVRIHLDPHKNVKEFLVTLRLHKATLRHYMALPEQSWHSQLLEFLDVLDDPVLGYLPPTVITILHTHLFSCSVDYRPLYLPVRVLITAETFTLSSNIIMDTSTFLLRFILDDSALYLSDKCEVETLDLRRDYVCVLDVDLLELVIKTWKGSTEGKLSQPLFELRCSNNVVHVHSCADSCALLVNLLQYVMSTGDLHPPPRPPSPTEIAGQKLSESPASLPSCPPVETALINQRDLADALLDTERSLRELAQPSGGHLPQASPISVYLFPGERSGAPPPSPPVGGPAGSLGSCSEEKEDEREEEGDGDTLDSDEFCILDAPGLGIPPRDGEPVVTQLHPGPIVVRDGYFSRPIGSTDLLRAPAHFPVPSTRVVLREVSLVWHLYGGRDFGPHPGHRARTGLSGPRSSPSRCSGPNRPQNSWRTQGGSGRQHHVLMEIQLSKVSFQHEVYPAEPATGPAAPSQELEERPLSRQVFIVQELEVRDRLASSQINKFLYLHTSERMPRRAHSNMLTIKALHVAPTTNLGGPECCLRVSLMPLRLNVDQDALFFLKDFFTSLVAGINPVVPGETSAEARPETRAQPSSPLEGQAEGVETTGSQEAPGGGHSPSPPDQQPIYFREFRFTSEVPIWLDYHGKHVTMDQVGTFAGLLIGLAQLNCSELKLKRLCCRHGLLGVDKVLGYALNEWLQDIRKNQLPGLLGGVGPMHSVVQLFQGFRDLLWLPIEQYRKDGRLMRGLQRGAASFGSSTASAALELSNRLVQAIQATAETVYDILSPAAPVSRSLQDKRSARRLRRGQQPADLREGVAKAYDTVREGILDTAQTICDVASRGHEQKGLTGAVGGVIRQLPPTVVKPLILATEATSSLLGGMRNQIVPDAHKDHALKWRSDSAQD
UniProt Q6UWY0: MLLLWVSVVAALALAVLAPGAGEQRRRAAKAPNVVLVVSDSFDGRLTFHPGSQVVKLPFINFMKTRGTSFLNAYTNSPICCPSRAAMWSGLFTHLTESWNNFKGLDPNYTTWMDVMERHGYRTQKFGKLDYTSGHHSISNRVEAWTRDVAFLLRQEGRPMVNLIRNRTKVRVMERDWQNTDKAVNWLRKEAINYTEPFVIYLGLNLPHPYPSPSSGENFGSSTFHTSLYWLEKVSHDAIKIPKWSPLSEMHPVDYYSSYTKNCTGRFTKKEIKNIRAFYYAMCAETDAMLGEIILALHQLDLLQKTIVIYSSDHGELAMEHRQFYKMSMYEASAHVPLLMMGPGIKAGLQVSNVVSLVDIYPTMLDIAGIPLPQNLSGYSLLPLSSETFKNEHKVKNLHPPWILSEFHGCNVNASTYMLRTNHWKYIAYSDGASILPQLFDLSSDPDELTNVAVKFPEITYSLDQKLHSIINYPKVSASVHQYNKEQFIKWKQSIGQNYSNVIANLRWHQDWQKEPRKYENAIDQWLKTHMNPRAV
UniProt Q8IXJ9: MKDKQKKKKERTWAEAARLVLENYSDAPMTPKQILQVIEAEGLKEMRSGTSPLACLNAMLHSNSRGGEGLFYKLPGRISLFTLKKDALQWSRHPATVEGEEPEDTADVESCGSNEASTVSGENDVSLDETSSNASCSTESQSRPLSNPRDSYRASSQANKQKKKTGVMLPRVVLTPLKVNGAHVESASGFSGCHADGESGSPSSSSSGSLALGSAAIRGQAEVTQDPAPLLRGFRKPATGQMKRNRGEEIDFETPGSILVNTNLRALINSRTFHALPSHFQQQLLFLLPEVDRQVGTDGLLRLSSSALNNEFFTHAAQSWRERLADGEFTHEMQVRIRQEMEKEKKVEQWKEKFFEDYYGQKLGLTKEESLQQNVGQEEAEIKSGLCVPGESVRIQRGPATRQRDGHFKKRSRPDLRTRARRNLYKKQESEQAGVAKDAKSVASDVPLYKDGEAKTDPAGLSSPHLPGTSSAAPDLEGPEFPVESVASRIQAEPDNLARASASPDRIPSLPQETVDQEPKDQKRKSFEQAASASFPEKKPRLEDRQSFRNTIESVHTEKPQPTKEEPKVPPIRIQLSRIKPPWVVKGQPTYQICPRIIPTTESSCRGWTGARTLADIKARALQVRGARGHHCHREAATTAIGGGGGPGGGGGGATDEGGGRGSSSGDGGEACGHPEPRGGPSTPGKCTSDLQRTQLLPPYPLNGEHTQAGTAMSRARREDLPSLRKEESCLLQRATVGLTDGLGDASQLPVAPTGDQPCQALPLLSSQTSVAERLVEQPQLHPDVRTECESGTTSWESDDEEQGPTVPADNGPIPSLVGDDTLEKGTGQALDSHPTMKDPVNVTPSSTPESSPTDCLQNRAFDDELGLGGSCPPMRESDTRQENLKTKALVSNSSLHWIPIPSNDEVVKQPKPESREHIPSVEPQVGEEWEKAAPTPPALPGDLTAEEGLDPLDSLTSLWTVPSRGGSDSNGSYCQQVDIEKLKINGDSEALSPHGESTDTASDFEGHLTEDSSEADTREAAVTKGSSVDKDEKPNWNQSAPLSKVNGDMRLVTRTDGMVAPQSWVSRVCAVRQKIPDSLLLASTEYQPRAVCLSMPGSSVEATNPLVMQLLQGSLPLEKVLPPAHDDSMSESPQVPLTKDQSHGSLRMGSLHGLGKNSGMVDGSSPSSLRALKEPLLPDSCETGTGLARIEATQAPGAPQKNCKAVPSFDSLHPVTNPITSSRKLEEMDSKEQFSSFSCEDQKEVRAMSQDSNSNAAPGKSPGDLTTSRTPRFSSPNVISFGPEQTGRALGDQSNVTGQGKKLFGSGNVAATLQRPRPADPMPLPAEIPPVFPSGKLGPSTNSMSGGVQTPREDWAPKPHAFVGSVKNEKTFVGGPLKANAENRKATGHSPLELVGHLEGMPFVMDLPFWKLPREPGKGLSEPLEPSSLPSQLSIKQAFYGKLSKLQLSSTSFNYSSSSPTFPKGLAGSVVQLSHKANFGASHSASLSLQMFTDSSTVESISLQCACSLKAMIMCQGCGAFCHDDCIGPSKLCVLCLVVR
UniProt Q8N2F6: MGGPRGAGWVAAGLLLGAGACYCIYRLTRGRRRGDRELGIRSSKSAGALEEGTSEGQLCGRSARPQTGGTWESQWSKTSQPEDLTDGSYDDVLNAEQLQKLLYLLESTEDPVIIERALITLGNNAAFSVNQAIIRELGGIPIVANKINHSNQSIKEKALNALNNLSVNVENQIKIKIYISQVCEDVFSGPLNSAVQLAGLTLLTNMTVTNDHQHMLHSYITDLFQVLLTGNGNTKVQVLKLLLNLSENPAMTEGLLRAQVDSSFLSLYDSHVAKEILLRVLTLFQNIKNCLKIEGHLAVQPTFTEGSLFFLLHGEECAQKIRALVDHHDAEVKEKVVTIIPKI
UniProt Q6P4H8: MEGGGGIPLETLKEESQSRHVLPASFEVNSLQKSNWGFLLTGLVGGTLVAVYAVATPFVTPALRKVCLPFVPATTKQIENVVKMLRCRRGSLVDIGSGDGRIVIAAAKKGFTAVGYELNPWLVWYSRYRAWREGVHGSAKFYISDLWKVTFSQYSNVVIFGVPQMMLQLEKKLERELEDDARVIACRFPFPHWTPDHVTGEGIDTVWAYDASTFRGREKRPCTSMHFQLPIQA
UniProt P27449, whole entry, looked up: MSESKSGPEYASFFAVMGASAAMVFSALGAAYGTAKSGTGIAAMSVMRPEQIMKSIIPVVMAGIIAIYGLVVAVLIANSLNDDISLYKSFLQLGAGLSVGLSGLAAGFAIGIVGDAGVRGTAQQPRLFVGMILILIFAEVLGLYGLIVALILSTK
UniProt P54709, whole entry, looked up: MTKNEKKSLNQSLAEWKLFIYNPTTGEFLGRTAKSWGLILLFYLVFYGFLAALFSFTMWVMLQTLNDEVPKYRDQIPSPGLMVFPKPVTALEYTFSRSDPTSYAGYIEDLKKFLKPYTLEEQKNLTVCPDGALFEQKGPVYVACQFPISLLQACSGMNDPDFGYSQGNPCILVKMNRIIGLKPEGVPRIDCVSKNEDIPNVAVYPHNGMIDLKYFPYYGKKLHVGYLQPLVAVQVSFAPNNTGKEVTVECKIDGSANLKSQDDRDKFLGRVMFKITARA
UniProt P00966: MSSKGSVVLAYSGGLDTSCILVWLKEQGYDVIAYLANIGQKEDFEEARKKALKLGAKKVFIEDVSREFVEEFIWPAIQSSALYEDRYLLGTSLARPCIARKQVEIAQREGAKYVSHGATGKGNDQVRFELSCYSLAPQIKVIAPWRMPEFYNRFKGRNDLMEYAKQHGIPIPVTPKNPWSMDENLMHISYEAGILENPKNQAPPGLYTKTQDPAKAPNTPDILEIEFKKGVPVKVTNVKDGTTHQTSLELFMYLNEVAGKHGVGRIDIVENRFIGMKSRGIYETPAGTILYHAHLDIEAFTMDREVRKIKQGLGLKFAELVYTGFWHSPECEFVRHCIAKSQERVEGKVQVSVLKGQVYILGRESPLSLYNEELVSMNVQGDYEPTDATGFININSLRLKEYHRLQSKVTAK

pictilisib = compound: CS(=O)(=O)N1CCN(Cc2cc3nc(-c4cccc5[nH]ncc45)nc(N4CCOCC4)c3s2)CC1 [pictilisib]
Outline: as §1

crizotinib = compound: C[C@@H](Oc1cc(-c2cnn(C3CCNCC3)c2)cnc1N)c1c(Cl)ccc(F)c1Cl [crizotinib]
Outline: as §1

[2] = compound: C[C@@H]1COCCN1C2=NC(=NC(=C2)C3(CC3)S(=O)(=O)C)C4=C5C=CNC5=CC=C4
Outline: as §1

gandotinib = compound: Cc1cc(Nc2cc(CN3CCOCC3)c3nc(C)c(Cc4ccc(Cl)cc4F)n3n2)n[nH]1 [gandotinib]
Outline: as §1

doramapimod = compound: Cc1ccc(-n2nc(C(C)(C)C)cc2NC(=O)Nc2ccc(OCCN3CCOCC3)c3ccccc23)cc1 [doramapimod]
Outline: as §1

filanesib = compound: CON(C)C(=O)N1N=C(c2cc(F)ccc2F)S[C@@]1(CCCN)c1ccccc1 [filanesib]
Outline: as §1

idasanutlin = compound: COc1cc(C(=O)O)ccc1NC(=O)[C@@H]1N[C@@H](CC(C)(C)C)[C@](C#N)(c2ccc(Cl)cc2F)[C@H]1c1cccc(Cl)c1F [idasanutlin]
Outline: as §1

alisertib = compound: COc1cc(Nc2ncc3c(n2)-c2ccc(Cl)cc2C(c2c(F)cccc2OC)=NC3)ccc1C(=O)O [alisertib]
Outline: as §1

[3] = compound: COc1cc2nc(-c3cc(F)ccc3O)nc(N[C@@H]3CNC[C@H]3C(C)(C)O)c2cc1OC
Outline: as §1

gefitinib = compound: COc1cc2ncnc(Nc3ccc(F)c(Cl)c3)c2cc1OCCCN1CCOCC1 [gefitinib]
Outline: as §1

[4] = compound: COc1cccc2cc(-c3nc([C@H]4CC[C@H](C(=O)O)CC4)n4ncnc(N)c34)[nH]c12
Outline: as §1

lapatinib = compound: CS(=O)(=O)CCNCc1ccc(-c2ccc3ncnc(Nc4ccc(OCc5cccc(F)c5)c(Cl)c4)c3c2)o1 [lapatinib]
Outline: as §1

[5] = compound: CS(=O)(=O)c1ccc(-c2cnc(N)c(C(=O)Nc3ccccc3)n2)cc1
Outline: as §1

duvelisib = compound: C[C@H](Nc1ncnc2nc[nH]c12)c1cc2cccc(Cl)c2c(=O)n1-c1ccccc1 [duvelisib]
Outline: as §1

tozasertib = compound: Cc1cc(Nc2cc(N3CCN(C)CC3)nc(Sc3ccc(NC(=O)C4CC4)cc3)n2)n[nH]1 [tozasertib]
Outline: as §1

[6] = compound: Cc1cc(SCc2sc(-c3ccc(C(F)(F)F)cc3)nc2C)ccc1OCC(=O)O
Outline: as §1

ispinesib = compound: Cc1ccc(C(=O)N(CCCN)[C@@H](c2nc3cc(Cl)ccc3c(=O)n2Cc2ccccc2)C(C)C)cc1 [ispinesib]
Outline: as §1

zotarolimus = compound: CO[C@H]1C[C@@H]2CC[C@@H](C)[C@@](O)(O2)C(=O)C(=O)N2CCCC[C@H]2C(=O)O[C@H]([C@H](C)C[C@@H]2CC[C@H](n3cnnn3)[C@H](OC)C2)CC(=O)[C@H](C)/C=C(\C)[C@@H](O)[C@@H](OC)C(=O)[C@H](C)C[C@H](C)/C=C/C=C/C=C/1C [zotarolimus]
Outline: as §1

[7] = compound: C[C@H](C1=CC=C(C=C1)C(=O)NC2=C3C=CNC3=NC=C2)N
Outline: as §1

Measured: log2 fold change

ATG2A (UniProt Q2TAZ0)
inactive: [1] 0.037 | pictilisib -0.251 | crizotinib -0.223 | [2] -0.535 | gandotinib -0.212 | doramapimod 0.063

ATP5F1B (UniProt F8W0P7)
inactive: [1] 0.138 | filanesib 0.082 | idasanutlin 0.044 | alisertib -0.063 | [3] 0.011 | gefitinib 0.044 | [4] 0.179 | lapatinib -0.054 | [5] 0.032 | crizotinib 0.199 | [2] 0.011 | duvelisib 0.028 | tozasertib -0.065 | [6] 0.033 | doramapimod 0.178 | ispinesib -0.036

ARPIN isoform 2 (UniProt Q7Z6K5)
inactive: [1] -0.112 | idasanutlin -0.042 | alisertib -0.134 | [3] -0.173 | gefitinib 0.063 | [4] 0.29 | lapatinib 0.155 | pictilisib -0.361 | crizotinib 0.127 | gandotinib -0.168 | tozasertib -0.085 | doramapimod 0.077 | ispinesib -0.055

Two successive entries from above, for reference:
ATG2A (UniProt Q2TAZ0)
inactive: [1] 0.037 | pictilisib -0.251 | crizotinib -0.223 | [2] -0.535 | gandotinib -0.212 | doramapimod 0.063

ATP5F1B (UniProt F8W0P7)
inactive: [1] 0.138 | filanesib 0.082 | idasanutlin 0.044 | alisertib -0.063 | [3] 0.011 | gefitinib 0.044 | [4] 0.179 | lapatinib -0.054 | [5] 0.032 | crizotinib 0.199 | [2] 0.011 | duvelisib 0.028 | tozasertib -0.065 | [6] 0.033 | doramapimod 0.178 | ispinesib -0.036

The results go on.

ARSK (UniProt Q6UWY0)
inactive: [1] 0.081 | zotarolimus 0.045 | alisertib -0.115 | gefitinib 0.024 | [4] 0.067 | crizotinib -0.155 | [2] -0.004 | [7] -0.007 | doramapimod 0.071

ATP2B2 (UniProt Q01814)
inactive: filanesib 0.068 | zotarolimus 0.092 | idasanutlin -0.052 | [3] 0.002 | lapatinib -0.222 | pictilisib 0.438 | [5] -0.117 | [7] -0.199 | duvelisib 0.728 | gandotinib 0 | [6] 0.611

ASXL1 (UniProt Q8IXJ9)
inactive: filanesib 0.214 | zotarolimus 0.182 | alisertib -0.157 | [3] -0.085 | [4] 0.016 | lapatinib 0.159 | [5] -0.205 | [2] -0.071 | [7] -0.045 | tozasertib -0.02

ARMC10 (UniProt Q8N2F6)
inactive: [1] 0.011 | filanesib 0.046 | zotarolimus 0.107 | idasanutlin -0.092 | alisertib -0.039 | [3] 0.117 | gefitinib 0.004 | [4] -0.133 | lapatinib -0.01 | pictilisib 0.07 | [5] 0.002 | crizotinib -0.04 | [2] 0.016 | [7] 0.006 | gandotinib -0.09 | [6] 0.108 | doramapimod 0.018 | ispinesib 0.027

ATPSCKMT (UniProt Q6P4H8)
inactive: filanesib -0.136 | zotarolimus -0.015 | idasanutlin -0.088 | alisertib 0.009 | [3] 0.053 | gefitinib -0.046 | [4] -0.006 | lapatinib 0.032 | pictilisib 0.155 | [5] -0.14 | [2] 0.042 | [7] -0.226 | duvelisib -0.047 | gandotinib 0.159 | tozasertib 0.07 | [6] -0.102

ATP6V0C (UniProt P27449)
inactive: filanesib -0.235 | zotarolimus 0.057 | idasanutlin 0.101 | alisertib 0.167 | [3] -0.472 | gefitinib 0.039 | [4] -0.052 | lapatinib 0.123 | pictilisib -0.491 | [5] -0.037 | [2] 0.075 | [7] 0.094 | duvelisib 0.023 | gandotinib 0 | tozasertib -0.021 | [6] 0.092

ATP1B3 (UniProt P54709)
inactive: [1] 0.082 | filanesib 0.073 | zotarolimus -0.034 | idasanutlin 0.014 | alisertib -0.032 | [3] 0.034 | gefitinib 0.025 | [4] 0.092 | lapatinib -0.051 | pictilisib -0.012 | [5] 0.053 | crizotinib 0.111 | [2] 0.027 | [7] -0.152 | gandotinib -0.013 | [6] -0.04 | doramapimod -0.042 | ispinesib 0.165

ASS1 (UniProt P00966)
inactive: filanesib -0.101 | zotarolimus 0.012 | idasanutlin -0.085 | alisertib 0.254 | [3] 0.047 | gefitinib -0.005 | [4] 0.056 | lapatinib -0.012 | pictilisib 0.018 | [5] 0.033 | [2] 0.017 | [7] -0.079 | gandotinib -0.014 | [6] -0.062 | ispinesib -0.205
